Laboratory results from doi:10.1101/2022.03.09.482262.
These are yes or no findings as the source states them, for the method shown. Some binding calls cover weakened binding; strength is not graded here.

Molecular target: POPEYE (PYE) (Arabidopsis thaliana) (UniProt Q9SN74)
Test: two-hybrid

binding: binds
B1: POPEYE (PYE) (protein, UniProt Q9SN74 1-240)
chain: MVSKTPSTSSDEANATADERCRKGKVPKRINKAVRERLKREHLNELFIELADTLELNQQNSGKASILCEATRFLKDVFGQIESLRKEHASLLSESSYVTTEKNELKEETSVLETEISKLQNEIEARANQSKPDLNTSPAPEYHHHHYQQQHPERVSQFPGLPIFQGPGFQQSATTLHPPATVLVLPIQPDPQTQDISEMTQAQQPLMFNSSNVSKPCPRYASAADSWSSRLLGERLKASE
